According to PMC1594584:
Results are given in words; binding and its absence hold for the method and conditions named. In cells and extracts the contact can be indirect.

Sequences of proteins named here, by UniProt entry; tags and fusion partners are left off. Residues count along the entry.
UniProt P05453, residues 124-685: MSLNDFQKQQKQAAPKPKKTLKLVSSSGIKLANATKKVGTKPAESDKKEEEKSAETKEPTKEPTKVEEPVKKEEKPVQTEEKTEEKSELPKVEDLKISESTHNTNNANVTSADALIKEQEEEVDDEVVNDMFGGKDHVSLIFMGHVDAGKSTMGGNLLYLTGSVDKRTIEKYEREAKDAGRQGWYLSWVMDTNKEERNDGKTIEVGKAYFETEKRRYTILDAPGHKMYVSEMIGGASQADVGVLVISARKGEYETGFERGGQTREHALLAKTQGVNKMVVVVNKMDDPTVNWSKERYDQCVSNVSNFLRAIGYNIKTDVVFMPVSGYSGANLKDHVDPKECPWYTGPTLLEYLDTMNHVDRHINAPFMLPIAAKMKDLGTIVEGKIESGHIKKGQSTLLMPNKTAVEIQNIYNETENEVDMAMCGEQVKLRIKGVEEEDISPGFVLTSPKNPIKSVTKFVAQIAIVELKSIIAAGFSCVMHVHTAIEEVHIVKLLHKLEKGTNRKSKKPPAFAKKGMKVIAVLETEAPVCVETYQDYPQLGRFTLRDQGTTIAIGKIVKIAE
UniProt P31539: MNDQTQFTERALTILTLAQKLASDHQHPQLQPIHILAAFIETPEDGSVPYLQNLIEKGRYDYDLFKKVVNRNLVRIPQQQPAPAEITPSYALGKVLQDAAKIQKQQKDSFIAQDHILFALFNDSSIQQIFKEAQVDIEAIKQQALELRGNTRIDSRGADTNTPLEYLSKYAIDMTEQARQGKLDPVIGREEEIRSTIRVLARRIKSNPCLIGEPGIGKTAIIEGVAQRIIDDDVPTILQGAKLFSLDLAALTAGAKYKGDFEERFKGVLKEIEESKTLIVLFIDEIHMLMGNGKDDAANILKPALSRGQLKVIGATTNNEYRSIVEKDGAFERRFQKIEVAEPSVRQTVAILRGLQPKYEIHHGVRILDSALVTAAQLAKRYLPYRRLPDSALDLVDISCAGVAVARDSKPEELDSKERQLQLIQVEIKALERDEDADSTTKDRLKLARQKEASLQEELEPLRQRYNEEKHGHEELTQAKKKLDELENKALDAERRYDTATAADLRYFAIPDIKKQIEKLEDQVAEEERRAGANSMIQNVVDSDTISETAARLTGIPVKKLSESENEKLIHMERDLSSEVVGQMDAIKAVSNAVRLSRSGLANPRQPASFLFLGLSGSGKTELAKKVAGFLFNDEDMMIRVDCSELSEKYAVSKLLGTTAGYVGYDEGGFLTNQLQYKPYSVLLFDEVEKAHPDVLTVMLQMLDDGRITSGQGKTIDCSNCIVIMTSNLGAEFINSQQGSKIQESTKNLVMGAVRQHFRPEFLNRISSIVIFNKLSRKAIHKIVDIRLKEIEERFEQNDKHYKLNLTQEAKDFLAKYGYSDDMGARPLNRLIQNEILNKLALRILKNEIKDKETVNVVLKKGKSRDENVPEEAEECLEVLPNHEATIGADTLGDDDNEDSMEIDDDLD

Target: MRF (HA-tagged Sup35p without the 123 N-terminal amino acids which constitute the prion, N, domain) (S. cerevisiae) (UniProt P05453)
Experiment: co-IP; 800 μg of lysate proteins with anti-HA antibodies on agarose beads, 1.5 hrs at 4°C, washed with PBS with 0.05% Tween 20; blots with anti-RF and anti-Hsp104

binding: no binding
Substance: Hsp104 (from UniProt P31539 1-908)
